Results taken from PMC3469465, “Muscle-Specific Splicing Factors ASD-2 and SUP-12 Cooperatively Switch Alternative Pre-mRNA Processing Patterns of the ADF/Cofilin Gene in Caenorhabditis elegans”.
Results are given in words; binding and its absence hold for the method and conditions named. Binding can be weak; no strength is given. Tags and fused reporters may be left off the sequences shown.

Target: His-GST-fused recombinant full-length ASD-2b (C. elegans)
Experiment: pull-down; His-GST fusion proteins immobilised on glutathione sepharose 4B beads, incubated with His-SUP-12 in 100 µl pull-down buffer (20 mM HEPES-KOH pH 7.9, 150 mM KCl, 1% Triton X-100, 1 mM DTT, 0.1 mM PMSF) with 100 ng/µl E. coli tRNA, 50 ng/µl BSA and 0, 30, 100 or 300 nM unc-60-I1A RNA (WT, M1 or M2), 30 min at 20°C; four washes; gel stained with SimplyBlue SafeStain; both purified

B1: recombinant His-tagged full-length SUP-12 (protein, UniProt O45189 1-248)
chain: MYGQVQDPLVHAAAAALAQSTNAEPVVGSRDTMFTKIFVGGLPYHTSDKTLHEYFEQFGDIEEAVVITDRNTQKSRGYGFVTMKDRASAERACKDPNPIIDGRKANVNLAYLGAKPRTNVQLAALAAGQVQLPLTTQLQALFQPRMGLPQMYYPTVTGLVNPLMAQQGAAAQQQLFDYNALAAVMNPQAAAAYGIQSQGKFAAAPTTIEQYAAYPAGYGLVPQSAYNIGNPQLQQLAAAQQQLEHQRV
binding: binds weakly
